These are yes or no findings as the source states them, for the method shown. In cells and extracts the contact can be indirect. A result given as binding can be weak or reduced; the word gives no strength. Sequences can lack the tags named with a protein.

By UniProt entry, the sequences of proteins in these tests, tags left out. Where a name states a change or a piece, a line headed by the entry shows the natural chain unless it says otherwise.
UniProt P10415: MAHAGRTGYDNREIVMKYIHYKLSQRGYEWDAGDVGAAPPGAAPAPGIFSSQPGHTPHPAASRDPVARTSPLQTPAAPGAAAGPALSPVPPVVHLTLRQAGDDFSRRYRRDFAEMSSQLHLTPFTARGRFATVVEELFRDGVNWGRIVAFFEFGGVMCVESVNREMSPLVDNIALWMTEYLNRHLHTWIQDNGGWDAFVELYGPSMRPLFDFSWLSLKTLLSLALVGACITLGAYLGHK

This experiment concerns the target Bcl-2 GST fusion protein (UniProt P10415). Nature of the experiment: pull-down; GST-Bcl-2 or GST bound to glutathione-agarose, incubated overnight with lysates of LV-HA-SPK2- or vector-infected HT22 cells; blotted with anti-HA; only the target purified.

B1: sphingosine kinase 2 (SPK2), HA-tagged, mouse (enzyme, UniProt Q9JIA7 1-617)
chain: MAPPPLLPVAASTPILHGEFGSYPANGPRFALTLTTQALHIQRLRPKPEARPRDGLVSLDEVSGCGTLQSRSPEDTAAYFCIYTYPRGRRGGRRRATRTFRADGATTYEENRAEAQRWATALTCLLRGVPLSGDQEITPELLPRKPRLLILVNPFGGRGLAWQRCMDHVVPMISEAGLSFNLIQTERQNHARELVQGLSLSEWEGIVTVSGDGLLYEVLNGLLDRPDWEDAVRMPIGVLPCGSGNALAGAVNHHGGFEQVVGVDLLLNCSLLLCRGGSHPLDLLSVTLASGSRCFSFLSVAWGFLSDVDIHSERFRALGSARFTLGAVLGLASLHTYRGRLSYLPATTEPALPIPGHSLPRAKSELVLAPAPAPAATHSPLHRSVSDLPLPLPQPALVSPGSPEPLPDLSLNGGGPELTGDWGGAGDAPLSPDPLLPSSPNALKTAQLSPIAEGPPEMPASSGFLPPTHSAPEASTWGPVDHLLPPLGSPLPQDWVTIEGEFVLMLGILPSHLCADLMAAPHARFDDGVVHLCWVRSGISRAALLRILLAMEHGNHFSLGCPHLGYAAARAFRLEPLTPRGLLTVDGELVEYGPIQAQVHPGLATLLTGPAGQKPQA
As for B1, the binding entry was “binds”.
